Whole data set: some 33,000 sequences, median “E-score (-0.5 to 0.5)” near -8e-05, cut for the highest 2% near 0.23. The list shows a part of the results.
molecular target: T1, Nrg2 (UniProt P38082); test: PBM E-score (8-mer binding enrichment) (E-score (-0.5 to 0.5)); higher = stronger / more preferred TF binding; conditions: protein concentration: 100 nM; construct: GST-full length
T1 sequence: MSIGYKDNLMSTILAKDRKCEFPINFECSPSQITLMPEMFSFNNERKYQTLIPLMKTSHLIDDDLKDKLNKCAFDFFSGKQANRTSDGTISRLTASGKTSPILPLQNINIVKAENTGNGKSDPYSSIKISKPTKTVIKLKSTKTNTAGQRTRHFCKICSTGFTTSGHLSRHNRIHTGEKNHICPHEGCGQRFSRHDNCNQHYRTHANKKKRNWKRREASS
Procedure: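 Universal 'all 10-mer' protein binding microarrays (Agilent AMADID 015681) probed with GST-tagged S. cerevisiae TFs (full-length or DBD) made by in vitro transcription/translation (PURExpress), about 100-200 nM. Bound TF was detected with fluorescent anti-GST. Each ungapped 8-mer (which stands for itself and its reverse complement) is scored by the PBM enrichment score (E-score), a modified Wilcoxon-Mann-Whitney statistic from -0.5 to +0.5, computed with the Universal PBM Analysis Suite. Scale: above 0.35 generally sequence-specific binding.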

Sequence | PBM E-score
GTCATCCA | 0.0788
TATGCATA | 0.00029
CATTTAGA | -0.076
ACTTTCCA | 0.0756
TGGTTAAA | -0.0231
CTCAGAGA | -0.0684
GTGAATAA | 0.167
AGACACAA | 0.0209
CGTAAAAA | -0.0837
AGGACCCT | 0.369
ATGCTTTG | -0.0734
ATAATTAT | 0.228
ATAAATGC | 0.166
CTTGTGCC | -0.222
ACCTTTCT | 0.026
CCTCTACC | -0.00218
ACAGAGGG | -0.139
CCCCAGGC | -0.284
ATCAACCG | 0.0105
ATTGTATC | 0.03
CTCACGGA | -0.101
ACACTGCC | 0.145
ATTGGGAC | -0.0162
GGGCCGGA | -0.138
GGTGCAAA | -0.142

Fetched one by one from the list above, 3 records:
Sequence | PBM E-score
CATTTAGA | -0.076
ATAATTAT | 0.228
GGTGCAAA | -0.142

Additional entries:

Sequence | PBM E-score
ACCAGACG | -0.0721
ATACCAGA | 0.226
GTTAAAGA | -0.00414
AATCAGGC | -0.0687
CAGTAGCA | -0.0511
GATTGAGC | -0.0352
ACCCTCCT | -0.14
ATGGCGAG | 0.0321
CAGCCGTA | -0.11
ACGTACGA | -0.199
AGTATGGA | 0.0835
CACGATGA | 0.0225
AGCCCGTG | -0.112
ACGTGTCC | -0.31
TGCGGGAA | 0.125
AGTTATCC | 0.118
CTAGCTGA | -0.0111
AAGAGAAA | 0.0319
AGTAAGAA | 0.109
GAAATTGA | -0.0291
GCTCAACC | -0.128
CACCCCCA | -0.313
CGAAAGGA | 0.112
AAAGCACG | -0.0854
GCATTCTA | 0.0303

Sequence | PBM E-score
AAAGCGAG | 0.187
AAGACCTG | -0.198
GCGTGGGA | -0.129
CCAAACAC | 0.118
AATACCAG | 0.206
AACCGCTG | -0.121
GAAGCTAC | 0.0431
AAATACCA | 0.0391
TGTCCTAA | -0.0512
AAAGCAAT | 0.184
AACACAAC | 0.0186
GGATGGCA | 0.188
TACGTATA | 0.00553
AAGGGACA | 0.137
GGCTTACA | 0.102
AGAGTATC | 0.0869
GGGGCGAA | 0.0259
ACTGTGCG | 0.0695
ACCTCCGA | -0.147
ATTGTGTG | -0.0481
ATCTACCC | -0.00404
CCATTACG | -0.0797
GCCCTCCA | -0.128
ACCGGTGA | -0.118
CACCCCCG | -0.365

Sequence | PBM E-score
CCCACACG | 0.159
AGGTTTTG | -0.0406
ACAACTGA | -0.0194
ACAACTCT | -0.0855
AGGTACCA | -0.134
AGATCAAC | 0.07
ATGTTGCG | 0.0425
CATACTAG | 0.248
ATCTAAGC | -0.155
CCTGTATC | 0.233
ATCCAACA | 0.0668
GCCGAGTA | 0.01
CCGAAGCG | 0.0231
AAGGGAAA | 0.0416
ACGAGGCC | -0.258
ACTTCCAC | 0.0979
GCTTTCAC | -0.025
ATGGTGTG | -0.0259
AACGGGGG | -0.261
GCGAATTA | 0.279
AGAGAGAC | -0.0758
GACGTGGA | 0.0691
AAGTAGCC | 0.0239
AACATTTC | -0.0715
GAGCTTGC | -0.151

Already shown: entries from further up.
Sequence | PBM E-score
CCGAAGCG | 0.0231
AAGGGAAA | 0.0416
ACGAGGCC | -0.258
ACTTCCAC | 0.0979

Next entries follow:

Sequence | PBM E-score
ACAATTGG | -0.0401
CCGACTCC | -0.151
GGTAATCA | 0.0349
CTTGCGTC | -0.00183
TAAAAGGA | 0.02
AGTTTACA | -0.0687
ATGTGAAT | 0.00585
AGCTACAG | -0.111
AAATCCAT | 0.266
CCAAGCGC | 0.0215
CCTCCTTC | -0.204
AAAGAAGC | -0.0222
ATACGGAT | 0.0807
ATCCGGCG | -0.0654
ACAGCGCA | 0.00939
GGACTGCC | -0.142
ATTAGCAC | 0.0689
CCGACCGA | 0.0178
GAGCCGCA | -0.0775
CTACCCCC | -0.363
AGGTACCG | 0.00854
CGAATTGC | 0.136
GGACTATA | -0.0144
GAATCTGC | -0.00561
TCGCGGAA | -0.0788

Sequence | PBM E-score
CCACCGGC | -0.168
CATCGCCG | 0.0333
ACCCCTTC | 0.0339
GCGACACC | -0.211
GATTTTGC | 0.00819
CGTCTTTA | 0.0637
CCCTTGCC | 0.00144
ATTCTTAA | -0.0433
CCGGGAAC | -0.00517
CAGCACTC | -0.0539
ATCGGGTC | 0.0497
GCGAGAGA | -0.111
ATGTGGTA | -0.0155
CGTTAGAG | -0.176
GAGGACAC | 0.0844
ACCTCCAC | -0.142
ACTGATCT | 0.0144
GCGGCAAC | 0.0029
ACATGCGA | -0.0276
GCTATCCA | -0.0732
TCGTCAGA | -0.0913
GGCGAGGA | -0.125
GAGTTATA | 0.0355
AGGATAGG | -0.0826
CCCTTTTA | -0.0772

Sequence | PBM E-score
CGGACTAG | -0.192
GCCATACC | -0.233
ATCGATTC | 0.057
GGGCTGAA | 0.00873
CGTTGCCA | -0.00214
CACACACG | 0.0787
AGAGATAA | 0.0742
AACGCAGA | -0.0108
AGTTTTTC | 0.00734
CGTGGACC | -0.0333
ATCGGCTG | -0.0969
GTGTCCCA | -0.0622
AGGTCGAG | -0.0366
CAGCGAAC | 0.105
GGAGGCAA | -0.141
GCGCAATA | 0.0287
AGAAGGGC | -0.0501
GGCACATA | 0.0571
ATCAGGGG | 0.0494
GTAATATA | 0.215
AACCTTCT | -0.064
CGGGCACG | -0.145

Source: the supplement of paper PMC3334620
